Results: US7030287B2, “Method of decreasing nitrate nitrogen and volatile organic compound in soil and groundwater” (Matsushita Electric Industrial Co., Ltd., priority 2001, dated 2006)

Assay: Artificial groundwater experiment (Example 2): 800 g hydrogen donor added from artificial well, analysis of sampled groundwater
Conditions: 800 g material
Source text: FIG. 2 is a sectional view showing an artificial groundwater experiment facility used for effecting a groundwater experiment in the method of decreasing nitrate nitrogen and volatile organic compounds in Example 2.
In the experiment bath 17 surrounded by the concrete block frame 11 in the artificial groundwater experiment facility, the ground surface area of the experiment soil 12 was 18 m^2, and the soil depth was 6.0 m. Under this experiment soil 12, a gravel layer 13 is formed at a thickness of 50 cm. A mixture of kuroboku soil and loam at a ratio of about 6:4 was used as the experiment soil 12.
In the experiment bath 17, an artificial well 14 constituted of a vinyl chloride tube having a diameter of 20 cm is provided. This artificial well 14 is provided at a position 0.5 m from the inner wall surface at one end of the experiment bath 17 (this inner wall surface is standard position) and has a depth of about 6 m, and reaches to the gravel layer 13. Further, a nitrate nitrogen solution addition piper 16 for adding a nitrate nitrogen solution is buried at a position 2 m from the inner wall surface (standard position) of the experiment bath 17 in the artificial groundwater experiment facility, extending to a position 4 m depth from the ground surface. A measurement water incorporating port 15 communicating to outside is provided on another inner wall surface opposite to the standard surface, one inner wall surface. This measurement water incorporating port 15 is formed at a position 50 cm from the bottom (corresponding to the uppermost part of the gravel layer 13), and provided for sampling measurement water which is groundwater.
The following experiments were conducted in 12 compartments using the artificial soil experiment facility constituted as described above.
In each experiment bath 17, a nitrate nitrogen solution of which nitrate nitrogen concentration had been previously controlled to 40 mg/L was added continuously from the end of the nitrate nitrogen solution adding pipe 16 (position 4 m from the ground surface) at a rate of 12 mL/day using a metering pump.
Under the above-mentioned conditions, movement of artificial groundwater is estimated to about 6.5 m/year. The present inventors have added 800 g of each hydrogen donor from the artificial well 14 in each test district and each comparative district. 30 days after initiation of the test, water was sampled from the measurement water incorporating port 15 formed at a position 50 cm from the bottom (corresponding to the uppermost part of gravel layer), and analyses of the nitrate nitrogen concentration, ammonia nitrogen concentration and total carbon concentration of the collected water were conducted according to JIS methods.

| Compound | Ammonia nitrogen concentration after 30 days | Whole carbon concentration after 30 days |
| --- | --- | --- |
| Sorbitan monopalmitate | 0.5 mg/L | 7 mg/L |
| CCCCCCCCCCCCCCOC(=O)CCCCCCCCCCCCC [Myristyl myristate] | 0.6 mg/L | 8 mg/L |
| CCCCCCCCCCCCCCCCCCO [Stearyl alcohol] | 0.9 mg/L | 9 mg/L |
| Myristilate | 0.5 mg/L | 8 mg/L |
| Tetraglyceryl pentastearate | 0.5 mg/L | 10 mg/L |
